Assay results taken from the supplement of paper PMC8256030.
This is one part of the list. Repeats in this data set agree poorly, so a single value says little.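 HEK293T cells were given each compound shortly before transfection with a reporter in which red mCherry is followed by the SARS-CoV-2 frameshift element and then GFP in the −1 frame, so GFP appears only after frameshifting.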

Test system: SARS-CoV-2 -1 PRF reporter mCherry-FSE-GFP(-1)
Assay: mCherry (red) intensity as percent of control; higher = higher upstream reporter expression
Conditions: 10 µM; 24 h; HEK293T

SMILES | mCherry [%]
C[C@H]1[C@H](NC(=O)/C(=N\OC(C)(C)C(=O)O)c2csc(N)n2)C(=O)N1S(=O)(=O)O [Aztreonam] | 67.8
NCCCC[C@H](NC(=O)[C@@H]1CCCN1C(=O)[C@@H]1CSSC[C@H](N)C(=O)N[C@@H](Cc2ccccc2)C(=O)N[C@@H](Cc2ccccc2)C(=O)N[C@@H](CCC(N)=O)C(=O)N[C@@H](CC(N)=O)C(=O)N1)C(=O)NCC(N)=O [Felypressin] | 101
Cc1c(C(=O)NN2CCCCC2)nn(-c2ccc(Cl)cc2Cl)c1-c1ccc(Cl)cc1 [rimonabant] | 88.4
CO/N=C(\C(=O)N[C@@H]1C(=O)N2C(C(=O)O)=C(CSc3nnnn3C)CS[C@H]12)c1csc(N)n1 | 91.6
O=C(O)COc1ccc(C(=O)/C=C/c2ccc(C(=O)O)cc2)cc1 [cinfenoac] | 105
C[C@H](NC(=O)[C@@H]1CCC(=O)N1)C(=O)N[C@@H](CCCCN)C(=O)N[C@@H](CO)C(=O)N[C@@H](CCC(N)=O)C(=O)NCC(=O)NCC(=O)N[C@@H](CO)C(=O)N[C@@H](CC(N)=O)C(=O)O [nonathymulin] | 108
CCN(CC)CCS(=O)(=O)[C@@H]1CCN2C(=O)c3coc(n3)CC(=O)C[C@H](O)/C=C(C)/C=C/CNC(=O)/C=C/[C@@H](C)[C@@H](C(C)C)OC(=O)[C@@H]12 [dalfopristin] | 103
Cc1scc2c1N(C(=O)CN1CCN(C)CC1)c1ccccc1NC2=O [telenzepine] | 93.5
C[C@@H]1C[C@H]2[C@@H]3C[C@H](F)C4=CC(=O)C=C[C@]4(C)[C@H]3[C@@H](O)C[C@]2(C)[C@H]1C(=O)CO [Fluocortolone] | 76

Part of the list above, reformatted.
SMILES	mCherry [%]
Cc1c(C(=O)NN2CCCCC2)nn(-c2ccc(Cl)cc2Cl)c1-c1ccc(Cl)cc1 [rimonabant]	88.4
CO/N=C(\C(=O)N[C@@H]1C(=O)N2C(C(=O)O)=C(CSc3nnnn3C)CS[C@H]12)c1csc(N)n1	91.6
